Patent US20200325224A1
No constants are given. Whether binding was seen depends on the method and setting. Some results given as binding are weak or reduced against the parent protein; the word gives no strength.

Chains of the proteins cited; added tags and fusions are not shown. Lines headed by an entry give the natural chain unless they say otherwise; changes in a name come on top.
UniProt Q95LI5: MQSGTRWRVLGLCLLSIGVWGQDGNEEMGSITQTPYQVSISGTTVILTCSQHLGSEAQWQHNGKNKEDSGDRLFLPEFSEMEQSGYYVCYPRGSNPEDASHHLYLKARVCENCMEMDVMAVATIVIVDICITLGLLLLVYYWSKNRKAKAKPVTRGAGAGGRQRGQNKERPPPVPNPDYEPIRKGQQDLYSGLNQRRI

Legend:
[1] = molecular target: cynomolgus CD3 epsilon (on expanded cynomolgus T cells) (cynomolgus) (UniProt Q95LI5); assay: flow cytometry on expanded cynomolgus T cells
[2] = molecular target: T1, cynomolgus CD3e amino acids 69-88 peptide (1:1 mixture of N- and C-terminally biotinylated variants) (cynomolgus); assay: ELISA, biotinylated target on streptavidin plate
T1 sequence (peptide, biotin attached via linker to the N- or the C-terminus (1,1 mixture)): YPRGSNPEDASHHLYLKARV

[3] = molecular target: cynomolgus CD3e stalk-Fc(knob)-Avi/CD3d-stalk-Fc(hole) (cynomolgus); assay: ELISA, biotinylated target on streptavidin plate
[4] = molecular target: T2, Biotin-Linker-cynomolgus CD3e amino acids 69-88 (SEQ ID NO: 29) (cynomolgus); assay: ELISA, biotinylated peptide on streptavidin plate
T2 sequence (peptide, N-terminal Biotin-Linker): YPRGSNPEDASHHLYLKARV

[5] = molecular target: T3, cynomolgus CD3e amino acids 69-88 (SEQ ID NO: 29)-Linker-Biotin (cynomolgus); assay: ELISA, biotinylated peptide on streptavidin plate
T3 sequence (peptide, C-terminal Linker-Biotin): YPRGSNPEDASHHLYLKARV

[6] = molecular target: T1, cynomolgus CD3e amino acids 69-88 peptide (1:1 mixture of N- and C-terminally biotinylated variants) (cynomolgus); assay: ELISA, biotinylated peptide on streptavidin plate
[7] = molecular target: T3, cynomolgus CD3e amino acids 69-88 (SEQ ID NO: 29)-Linker-Biotin (cynomolgus); assay: ELISA, peptide on streptavidin plate via C-terminal biotin
[8] = molecular target: T2, Biotin-Linker-cynomolgus CD3e amino acids 69-88 (SEQ ID NO: 29) (cynomolgus); assay: ELISA, peptide on streptavidin plate via N-terminal biotin

Measured: binding

B1: antibody clone 645 (antibody, V domains shown)
VH: QSLEESGGDLVKPGASLTLTCLASGFSFSGTYWICWVRQAPGKGLEWIGCISTDSGSTYYASWAKGRFTISKTSSTTVTLQMTSLTAADTATNFCARSAYASEGYALWGPGTLVTVSS
VL: AIVMTQTPSSKSVPVGDTVTINCQASESVYNNNYLSWYQQKPGQPPKLLIYYASTLASGVSSRFKGSGSGTQFTLTISDVVCDDAATYYCTGWKSITTDGMGAFGGGTEVVVKG
binds: [1] | [2] | [3] | [4] | [5] | [6] | [7] | [8]
